Data from paper doi:10.1101/695700.
Changes are numbered by the printed parent chain. These are yes or no findings as the source states them, for the method shown. For some assays here: Binding can be weak; no strength is given.

How the values were obtained:
[1] = target: T1, rHC1 D298A (MIDAS site mutant) (human) (UniProt P19827); assay: SPR
T1 sequence: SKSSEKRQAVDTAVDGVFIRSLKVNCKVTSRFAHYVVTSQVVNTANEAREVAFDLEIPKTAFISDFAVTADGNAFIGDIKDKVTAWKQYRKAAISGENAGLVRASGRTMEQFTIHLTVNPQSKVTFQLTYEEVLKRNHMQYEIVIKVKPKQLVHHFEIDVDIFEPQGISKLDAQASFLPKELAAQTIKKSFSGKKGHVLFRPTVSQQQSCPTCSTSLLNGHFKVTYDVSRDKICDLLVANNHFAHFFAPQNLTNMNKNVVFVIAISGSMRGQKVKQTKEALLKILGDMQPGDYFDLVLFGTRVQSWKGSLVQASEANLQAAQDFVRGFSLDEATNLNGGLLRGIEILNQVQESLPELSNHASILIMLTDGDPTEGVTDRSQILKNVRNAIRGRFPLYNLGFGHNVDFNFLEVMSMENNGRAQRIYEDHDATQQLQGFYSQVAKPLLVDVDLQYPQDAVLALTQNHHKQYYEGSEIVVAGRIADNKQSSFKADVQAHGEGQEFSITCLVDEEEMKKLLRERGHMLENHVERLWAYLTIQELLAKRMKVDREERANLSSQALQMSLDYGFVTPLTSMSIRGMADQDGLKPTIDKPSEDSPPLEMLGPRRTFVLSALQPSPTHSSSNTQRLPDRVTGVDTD

[2] = target: T2, recombinant HC1 (rHC1), wild type; heavy chain 1 of inter-α-inhibitor (human) (UniProt P19827); assay: SPR
T2 sequence: T1 sequence with A264D

Row | binding [1] | binding [2] | Substance
1 | binds |  | TGFβ1-LAP (small latent complex of TGFβ1)
2 | binds |  | TGFβ3-LAP (small latent complex of TGFβ3)
3 | binds |  | TGFβ2-LAP (small latent complex of TGFβ2)
4 |  | no binding (tested: 10nM) | LTBP1 EGF region (domain or fragment)
5 |  | no binding (tested: 10nM) | LTBP1 C-terminal region (CT) (domain or fragment)
